Laboratory results as given in publication PMC6839512.
For at least one entry, the source does not settle the construct or the ends of the probe. For part of these data: A weaker result is weaker than the reference pair of the same experiment. For part of these data: At least one verdict was read from the data and is not stated in words by the source.

Sequences of proteins named here, by UniProt entry; tags and fusion partners are left off. A change or cut given only in a name is not applied to a line headed by its entry. Residues count along the entry.
UniProt P15692: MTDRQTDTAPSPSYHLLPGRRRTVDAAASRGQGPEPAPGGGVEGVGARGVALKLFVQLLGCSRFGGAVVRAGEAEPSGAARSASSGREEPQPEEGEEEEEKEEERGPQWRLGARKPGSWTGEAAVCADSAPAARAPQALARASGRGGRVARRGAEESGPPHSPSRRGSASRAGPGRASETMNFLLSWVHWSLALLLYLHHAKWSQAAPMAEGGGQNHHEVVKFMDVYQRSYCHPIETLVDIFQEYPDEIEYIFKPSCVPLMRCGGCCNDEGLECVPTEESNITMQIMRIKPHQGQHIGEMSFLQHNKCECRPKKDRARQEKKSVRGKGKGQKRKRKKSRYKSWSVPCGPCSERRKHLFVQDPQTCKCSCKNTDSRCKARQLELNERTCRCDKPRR
UniProt P02769, 25-607: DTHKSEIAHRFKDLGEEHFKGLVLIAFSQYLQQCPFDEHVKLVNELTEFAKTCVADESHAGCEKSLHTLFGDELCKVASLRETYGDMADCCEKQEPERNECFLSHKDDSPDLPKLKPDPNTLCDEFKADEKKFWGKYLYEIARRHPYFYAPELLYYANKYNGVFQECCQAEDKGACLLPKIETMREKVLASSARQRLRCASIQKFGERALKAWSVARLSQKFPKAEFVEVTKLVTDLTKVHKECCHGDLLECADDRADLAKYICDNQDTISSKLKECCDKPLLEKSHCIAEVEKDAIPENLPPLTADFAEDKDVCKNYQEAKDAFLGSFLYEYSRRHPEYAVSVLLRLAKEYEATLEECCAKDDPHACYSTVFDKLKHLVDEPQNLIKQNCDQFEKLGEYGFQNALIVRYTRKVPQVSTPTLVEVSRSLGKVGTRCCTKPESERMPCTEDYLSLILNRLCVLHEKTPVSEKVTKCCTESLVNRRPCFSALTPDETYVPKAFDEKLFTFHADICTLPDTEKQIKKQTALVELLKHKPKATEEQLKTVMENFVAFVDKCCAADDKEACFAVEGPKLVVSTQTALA

Legend:
VEGF (human) = VEGF (human) (UniProt P15692); test: BLI; details: BLI buffer, pH and temperature not stated, commercial protein, single-stranded DNA
[1] = molecular target: bovine serum albumin (BSA) (bovine) (UniProt P02769); test: on-chip sandwich RCA fluorescence; details: sandwich with second aptamer N2; 5'-NH2; on-chip: PBS washes, 10% FBS in PBS block, RCA in phi29 buffer (50 mM Tris-HCl, 10 mM MgCl2, 10 mM (NH4)2SO4, pH 7.5); commercial protein; single-stranded DNA
[2] = tested on: epidermal growth factor receptor (EGFR); test: on-chip sandwich RCA fluorescence; details: sandwich with second aptamer N2; 5'-NH2; on-chip: PBS washes, 10% FBS in PBS block, RCA in phi29 buffer (50 mM Tris-HCl, 10 mM MgCl2, 10 mM (NH4)2SO4, pH 7.5); commercial protein; single-stranded DNA
[3] = molecular target: human serum albumin (HSA) (human) (UniProt P02768); test: on-chip sandwich RCA fluorescence; details: sandwich with second aptamer N2; 5'-NH2; on-chip: PBS washes, 10% FBS in PBS block, RCA in phi29 buffer (50 mM Tris-HCl, 10 mM MgCl2, 10 mM (NH4)2SO4, pH 7.5); commercial protein; single-stranded DNA
insulin = test: on-chip sandwich RCA fluorescence; details: sandwich with second aptamer N2; 5'-NH2; on-chip: PBS washes, 10% FBS in PBS block, RCA in phi29 buffer (50 mM Tris-HCl, 10 mM MgCl2, 10 mM (NH4)2SO4, pH 7.5); commercial protein; single-stranded DNA

| Sequence | binding result (VEGF (human); VEGF pre-captured on immobilized first aptamer (sandwich), 5'-phosphate) | binding result (VEGF (human); aptamer immobilized on AR2G sensor, 5'-NH2) | binding result [1] | binding result [2] | binding result [3] | binding result (insulin) |
| --- | --- | --- | --- | --- | --- | --- |
| CAATTGGGCCCGTCCGTATGGTGGGTAAAAAAAAAAAAAAACACAGCTGAGGATAGGACAT [second DNA aptamer ligation template for VEGF] | binds |  |  |  |  |  |
| TTTTTTTTGTGGGGGTGGACGGGCCGGGTAGA [first DNA aptamer for VEGF (capture)] |  | binds | binds more weakly | binds more weakly | binds more weakly | binds more weakly |
